Test results from doi:10.1101/2025.03.18.643855.
Where a chain is given by its changes, count along the chain named. Results are given in words; binding and its absence hold for the method and conditions named. Binding seen in cells or lysates may run through a third protein. Here binding means that the protein was enriched with, or labelled near, the bait; the list need not be complete. Where a sequence is shown, tags or fusion partners need not be part of it.

The chains behind the UniProt entries cited, without tags or fusion partners.
UniProt Q12888: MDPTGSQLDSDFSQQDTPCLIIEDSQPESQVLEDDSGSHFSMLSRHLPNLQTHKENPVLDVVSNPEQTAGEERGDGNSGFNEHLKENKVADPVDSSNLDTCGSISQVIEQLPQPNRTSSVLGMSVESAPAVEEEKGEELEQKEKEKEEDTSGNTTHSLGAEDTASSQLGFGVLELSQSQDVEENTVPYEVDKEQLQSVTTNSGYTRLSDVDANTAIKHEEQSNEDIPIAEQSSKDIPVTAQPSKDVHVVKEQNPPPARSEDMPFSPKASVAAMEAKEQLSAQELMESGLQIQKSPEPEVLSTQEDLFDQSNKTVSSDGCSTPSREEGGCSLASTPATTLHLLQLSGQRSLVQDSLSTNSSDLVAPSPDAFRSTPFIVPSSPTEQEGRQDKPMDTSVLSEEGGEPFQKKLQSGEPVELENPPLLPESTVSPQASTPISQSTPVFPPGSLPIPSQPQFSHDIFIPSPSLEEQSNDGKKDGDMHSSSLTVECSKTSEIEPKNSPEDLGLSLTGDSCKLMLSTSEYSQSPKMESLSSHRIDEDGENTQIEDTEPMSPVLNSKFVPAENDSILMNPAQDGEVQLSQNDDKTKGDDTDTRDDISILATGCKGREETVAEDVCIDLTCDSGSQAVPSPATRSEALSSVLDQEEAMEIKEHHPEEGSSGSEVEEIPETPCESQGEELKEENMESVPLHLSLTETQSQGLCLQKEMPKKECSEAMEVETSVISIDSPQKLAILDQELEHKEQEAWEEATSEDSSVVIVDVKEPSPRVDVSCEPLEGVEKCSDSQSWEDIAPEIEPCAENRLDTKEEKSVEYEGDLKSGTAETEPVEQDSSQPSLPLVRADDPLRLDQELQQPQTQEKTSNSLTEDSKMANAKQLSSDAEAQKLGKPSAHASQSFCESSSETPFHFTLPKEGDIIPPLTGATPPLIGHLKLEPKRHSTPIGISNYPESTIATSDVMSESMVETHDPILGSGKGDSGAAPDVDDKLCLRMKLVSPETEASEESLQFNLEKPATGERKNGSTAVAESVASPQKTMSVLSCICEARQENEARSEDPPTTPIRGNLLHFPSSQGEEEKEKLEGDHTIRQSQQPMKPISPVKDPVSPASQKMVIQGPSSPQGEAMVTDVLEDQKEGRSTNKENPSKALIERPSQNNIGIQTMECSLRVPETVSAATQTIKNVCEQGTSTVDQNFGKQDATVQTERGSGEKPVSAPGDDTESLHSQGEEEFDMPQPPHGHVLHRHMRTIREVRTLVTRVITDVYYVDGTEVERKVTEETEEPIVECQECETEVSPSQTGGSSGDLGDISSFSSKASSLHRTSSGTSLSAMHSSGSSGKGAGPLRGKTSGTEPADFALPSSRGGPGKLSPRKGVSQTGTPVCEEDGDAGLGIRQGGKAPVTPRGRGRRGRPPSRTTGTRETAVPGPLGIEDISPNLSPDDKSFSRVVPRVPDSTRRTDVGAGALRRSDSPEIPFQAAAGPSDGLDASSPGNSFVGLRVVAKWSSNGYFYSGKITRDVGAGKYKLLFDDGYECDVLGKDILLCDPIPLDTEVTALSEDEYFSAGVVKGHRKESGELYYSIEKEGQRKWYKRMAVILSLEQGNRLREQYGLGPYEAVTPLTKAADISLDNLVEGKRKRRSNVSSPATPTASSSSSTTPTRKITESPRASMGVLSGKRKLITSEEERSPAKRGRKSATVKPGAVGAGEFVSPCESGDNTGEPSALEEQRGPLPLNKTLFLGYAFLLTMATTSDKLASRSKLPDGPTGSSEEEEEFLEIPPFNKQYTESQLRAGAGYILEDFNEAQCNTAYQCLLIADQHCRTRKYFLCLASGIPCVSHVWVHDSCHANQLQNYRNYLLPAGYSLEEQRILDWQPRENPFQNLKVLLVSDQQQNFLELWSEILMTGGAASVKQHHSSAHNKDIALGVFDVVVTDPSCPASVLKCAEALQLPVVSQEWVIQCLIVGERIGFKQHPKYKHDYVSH

Columns and labels:
FLAG-GMCL1 E142K (human) = target: T1, FLAG-GMCL1 E142K (human) (UniProt Q96IK5); test: affinity purification with mass spectrometry; FLAG-tagged GMCL1 WT, EK or BBO expressed in HEK293T (24 h), captured on FLAG-M2 magnetic beads (4°C, 2 h), eluted with FLAG peptide, MS/MS; SAINT score > 0.70, FDR < 5%, compared with BBO
T1 sequence: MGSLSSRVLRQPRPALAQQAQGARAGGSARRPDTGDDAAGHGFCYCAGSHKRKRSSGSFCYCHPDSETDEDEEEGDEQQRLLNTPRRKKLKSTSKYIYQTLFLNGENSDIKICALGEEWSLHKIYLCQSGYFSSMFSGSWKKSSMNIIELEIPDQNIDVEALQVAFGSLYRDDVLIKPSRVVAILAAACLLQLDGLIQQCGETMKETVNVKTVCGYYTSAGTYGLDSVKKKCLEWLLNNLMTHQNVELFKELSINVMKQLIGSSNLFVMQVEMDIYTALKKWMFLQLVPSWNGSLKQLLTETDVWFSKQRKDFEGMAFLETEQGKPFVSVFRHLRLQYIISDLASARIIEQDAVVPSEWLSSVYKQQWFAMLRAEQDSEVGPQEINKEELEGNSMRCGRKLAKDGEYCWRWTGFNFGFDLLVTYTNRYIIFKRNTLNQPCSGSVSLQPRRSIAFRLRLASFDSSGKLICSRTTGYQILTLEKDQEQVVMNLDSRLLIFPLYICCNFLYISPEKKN

[1] = target: T2, FLAG-GMCL1 WT (wild-type human germ cell-less protein-like 1) (human) (UniProt Q96IK5); test: as above
T2 sequence: T1 sequence with K142E

binding (FLAG-GMCL1 E142K (human)): binds | binding [1]: binds
Substance: endogenous 53BP1 (p53-binding protein 1), HEK293T (from UniProt Q12888 1-1972)
